Assay: general procedure: Fmoc solid-phase peptide synthesis; H-Asp(OtBu)-Trt(2-Cl) resin (antigen peptide); NH2-SAL-Trt(2-Cl)-Resin (MAP core)

Substance | conjugation yield (conjugation step) [%] | isolated yield (whole synthesis, scale of the general procedure 1 mmol) [%]
Core-[PEG-STQKAID]4 | 55 | –
N3-PEG-STQKAID | – | 56

— patent US20190337989A1 (priority 2016, published 2019)
